Assay results reported in US20130158264A1, “Polymorphs of OSI-906” (priority 2010, published 2013).

Test: Quantitative determination of Forms A, C and D in OSI-906 by Raman spectroscopy
Conditions: for Calculated Form C / Calculated Form D: single repetitions; for Average Form C / Average Form D: triplicate
Method: A quantification method for Forms A, C and D in OSI-906 has been developed based on Raman spectroscopy and PLS (partial least squares) regression.
Lightly grind approximately 250 mg of sample in a mortar and pestle. Fill a 100 μL aluminum crucible which typically takes approximately 25 mg of ground sample depending on the bulk density of the material (no less than 12 mg should be used for the preparation). Use a spatula to compress the sample and provide a smooth surface. Place the crucible onto the Raman sample stage. Focus microscope and acquire Raman spectrum of the sample. Repeat sample preparation in crucible and acquisition procedure two additional times for a total of three measurements for each ground sample. Save each spectrum in GRAMS SPC file format.
A quantification method for Forms A, C and D in OSI-906 has been developed based on Raman spectroscopy and PLS (partial least squares) regression. The method assumes presence of only Forms A, C and D in the sample. For the purpose of quantitation, the Raman spectra are pretreated using mean centering normalization. The spectra within the range of 1478-1644 cm^−1 were used for PLS regression. TQ analyst software is used for establishing the calibration model (as shown in FIG. 61 and FIG. 62) and quantifying the samples. Weight percentage (wt %) of Forms C and D is determined using the calibration model.
Load the quantitation method using TQ Analyst software for quantifying the three spectra obtained for the sample. Print out the quantitation report for each spectrum. Calculate the average of Forms C and D concentration in wt % for the triplicate measurements.
The calculated amount of Forms A, C and D was weighed according to the desired wt % of Forms C and D and to a total amount of approximately 250 mg. The samples were mixed in a mortar with the help of a spatula and slightly ground for 5 minutes to obtain consistency and homogeneity.
The calibration and validation samples were analyzed according to the Test Method to obtain Raman spectra. Quantitative determination of Forms C and Form D was then performed using TQ Analyst software (version 7.1). For the purpose of quantitation, the Raman spectra are pretreated using a quadratic baseline correction based on the region between 1478 and 1654 cm^−1 to correct baseline shifts and intensity variation among samples. The Raman spectra within the range of 1478-1654 cm^−1 were used for PLS (partial least squares) regression with mean centering normalization.

[1] = validation mixture, actual Form C 2.62 wt %
[2] = validation mixture, actual Form C 5.04 wt %
[3] = validation mixture, actual Form C 9.90 wt %
[4] = validation mixture, actual Form C 15.03 wt %
[5] = validation mixture, actual Form D 2.59 wt %
[6] = validation mixture, actual Form D 5.20 wt %
[7] = validation mixture, actual Form D 10.25 wt %
[8] = validation mixture, actual Form D 15.16 wt %

CC1(O)CC(c2nc(-c3ccc4ccc(-c5ccccc5)nc4c3)c3c(N)nccn23)C1 (stereo not drawn) [Form C, cis-3-[8-amino-1-(2-phenyl-quinolin-7-yl)-imidazo[1,5-a]pyrazin-3-yl]-1-methylcyclobutanol]
Accuracy = abs[(average Form C wt % determined) − (actual Form C wt %)] (actual Form C 2.62 wt %): 0.1 wt % | Accuracy = abs[(average Form C wt % determined) − (actual Form C wt %)] (actual Form C 5.04 wt %): 0.0 wt % | Accuracy = abs[(average Form C wt % determined) − (actual Form C wt %)] (actual Form C 9.90 wt %): 0.9 wt % | Accuracy = abs[(average Form C wt % determined) − (actual Form C wt %)] (actual Form C 15.03 wt %): 1.2 wt % | Accuracy = abs[(average Form C wt % determined) − (actual Form C wt %)] (actual Form C 20.11 wt %): 1.7 wt % | Calculated Form C (validation mixture of Forms A, C, D, actual Form C 20.11 wt %): 19.09 wt % and 18.54 wt % and 17.67 wt % | Calculated Form C [1]: 2.64 wt % and 2.75 wt % and 2.70 wt % | Average Form C [1]: 2.70 wt % | Calculated Form C [2]: 4.82 wt % and 5.29 wt % and 5.05 wt % | Average Form C [2]: 5.05 wt % | Calculated Form C [3]: 9.46 wt % and 8.79 wt % and 8.89 wt % | Average Form C [3]: 9.05 wt % | Calculated Form C [4]: 13.58 wt % and 13.83 wt % and 14.09 wt % | Average Form C [4]: 13.83 wt % | Average Form C (validation mixture, actual Form C 20.11 wt %): 18.43 wt %

CC1(O)CC(c2nc(-c3ccc4ccc(-c5ccccc5)nc4c3)c3c(N)nccn23)C1 (stereo not drawn) [Form D, cis-3-[8-amino-1-(2-phenyl-quinolin-7-yl)-imidazo[1,5-a]pyrazin-3-yl]-1-methylcyclobutanol]
Accuracy = abs[(average Form D wt % determined) − (actual Form D wt %)] (actual Form D 2.59 wt %): 1.3 wt % | Accuracy = abs[(average Form D wt % determined) − (actual Form D wt %)] (actual Form D 5.20 wt %): 1.1 wt % | Accuracy = abs[(average Form D wt % determined) − (actual Form D wt %)] (actual Form D 10.25 wt %): 0.3 wt % | Accuracy = abs[(average Form D wt % determined) − (actual Form D wt %)] (actual Form D 15.16 wt %): 0.0 wt % | Accuracy = abs[(average Form D wt % determined) − (actual Form D wt %)] (actual Form D 20.11 wt %): 0.0 wt % | Calculated Form D (validation mixture of Forms A, C, D, actual Form D 20.11 wt %): 20.74 wt % and 20.10 wt % and 19.60 wt % | Calculated Form D [5]: 3.89 wt % and 3.93 wt % and 3.85 wt % | Average Form D [5]: 3.89 wt % | Calculated Form D [6]: 6.14 wt % and 6.49 wt % and 6.23 wt % | Average Form D [6]: 6.29 wt % | Calculated Form D [7]: 10.86 wt % and 10.44 wt % and 10.25 wt % | Average Form D [7]: 10.52 wt % | Calculated Form D [8]: 14.79 wt % and 15.43 wt % and 15.29 wt % | Average Form D [8]: 15.17 wt % | Average Form D (validation mixture, actual Form D 20.11 wt %): 20.15 wt %

Several values for one entry are separate records, joined by “and”; a condition that tells them apart may be missing. Equal values may be shown once.
